For one experiment, the target named is GFP-p65 (UniProt Q04206). Nature of the experiment: co-IP; HEK293T cells co-transfected with tagged plasmids, lysates in TNE lysis buffer; immunoprecipitation with anti-GFP or anti-Myc antibody or Flag-affinity magnetic beads, western blot for the tag of the partner; for HA-HDAC1 with GFP-p65: with or without co-transfected Flag-GATA4. In general terms: Immunoblotting shows a protein as a band on a membrane.

Protein sequences, listed by entry. Tags and fused reporters are not part of them. Lines headed by an entry give the natural chain unless they say otherwise; changes in a name come on top.
UniProt Q04206: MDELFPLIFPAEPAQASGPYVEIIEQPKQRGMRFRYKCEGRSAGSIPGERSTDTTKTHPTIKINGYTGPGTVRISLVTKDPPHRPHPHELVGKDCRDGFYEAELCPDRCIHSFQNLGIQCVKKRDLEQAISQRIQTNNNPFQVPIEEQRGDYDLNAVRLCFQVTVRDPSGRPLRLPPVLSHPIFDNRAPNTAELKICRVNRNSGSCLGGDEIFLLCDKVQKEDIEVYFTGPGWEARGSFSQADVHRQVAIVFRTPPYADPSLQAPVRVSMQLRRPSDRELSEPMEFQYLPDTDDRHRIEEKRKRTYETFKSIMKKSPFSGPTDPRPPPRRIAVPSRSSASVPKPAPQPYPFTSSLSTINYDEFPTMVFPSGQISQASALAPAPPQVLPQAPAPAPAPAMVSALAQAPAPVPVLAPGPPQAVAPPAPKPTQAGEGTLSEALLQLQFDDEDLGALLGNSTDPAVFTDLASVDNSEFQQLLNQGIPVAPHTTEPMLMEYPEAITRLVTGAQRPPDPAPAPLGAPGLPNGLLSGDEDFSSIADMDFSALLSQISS
UniProt P43694: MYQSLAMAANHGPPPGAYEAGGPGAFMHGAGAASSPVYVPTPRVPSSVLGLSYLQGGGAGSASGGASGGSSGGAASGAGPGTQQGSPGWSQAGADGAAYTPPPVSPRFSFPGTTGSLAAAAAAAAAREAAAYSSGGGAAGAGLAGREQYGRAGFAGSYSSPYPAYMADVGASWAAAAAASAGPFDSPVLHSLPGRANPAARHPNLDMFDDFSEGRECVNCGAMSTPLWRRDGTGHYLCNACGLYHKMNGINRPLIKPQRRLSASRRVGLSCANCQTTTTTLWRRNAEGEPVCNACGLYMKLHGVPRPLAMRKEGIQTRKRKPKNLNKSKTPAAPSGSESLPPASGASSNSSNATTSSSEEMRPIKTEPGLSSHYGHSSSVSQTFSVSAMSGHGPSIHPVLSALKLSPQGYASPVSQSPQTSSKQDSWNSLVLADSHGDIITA
UniProt Q13547: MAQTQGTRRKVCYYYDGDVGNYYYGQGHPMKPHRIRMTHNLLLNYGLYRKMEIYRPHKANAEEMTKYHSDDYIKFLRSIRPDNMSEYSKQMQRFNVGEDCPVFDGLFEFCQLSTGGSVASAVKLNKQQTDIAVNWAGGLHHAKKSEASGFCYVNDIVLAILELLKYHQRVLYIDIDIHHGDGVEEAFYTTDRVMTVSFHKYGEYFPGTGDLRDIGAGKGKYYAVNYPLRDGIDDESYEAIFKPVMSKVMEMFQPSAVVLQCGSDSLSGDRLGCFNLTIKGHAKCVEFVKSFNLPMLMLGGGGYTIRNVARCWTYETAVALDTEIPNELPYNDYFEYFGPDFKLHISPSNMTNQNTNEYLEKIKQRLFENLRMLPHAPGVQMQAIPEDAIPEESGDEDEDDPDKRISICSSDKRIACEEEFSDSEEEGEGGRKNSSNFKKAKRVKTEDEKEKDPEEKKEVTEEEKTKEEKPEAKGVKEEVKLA

Another experiment addresses GST-p65 (UniProt Q04206). Briefly: pull-down; GST fusion protein expressed in E. coli BL21 and purified on GST-tag purification resin as bait; partner in lysate of transfected HEK293T cells; western blot; only the target purified.
The next experiment has as its target Myc-GATA4 (UniProt P43694). Nature of the experiment: co-IP; HEK293T cells co-transfected with tagged plasmids, lysates in TNE lysis buffer; immunoprecipitation with anti-GFP or anti-Myc antibody or Flag-affinity magnetic beads, western blot for the tag of the partner; for HA-HDAC1 with GFP-p65: with or without co-transfected Flag-GATA4.
For experiment [1], the target named is GATA-binding protein 4 (GATA4), endogenous in T47D cells (human (endogenous in T47D)) (UniProt P43694). Briefly: co-IP; endogenous proteins in T47D cell lysates (TNE lysis buffer: Tris-HCl pH 7.4 20 mM, NaCl 100 mM, EDTA 1 mM, NP-40 0.5%); immunoprecipitation with anti-p65 or anti-GATA4 antibody, Protein A/G magnetic beads, western blot.
Experiment [2] concerns the target p65 (NF-κB transcription factor family), endogenous in T47D cells (human (endogenous in T47D)) (UniProt Q04206). The experiment is described as above.
Another experiment concerns the target Flag-GATA4 (UniProt P43694). Briefly: co-IP; HEK293T cells co-transfected with tagged plasmids, lysates in TNE lysis buffer; immunoprecipitation with anti-GFP or anti-Myc antibody or Flag-affinity magnetic beads, western blot for the tag of the partner; for HA-HDAC1 with GFP-p65: with or without co-transfected Flag-GATA4.
The target in a further experiment is GST-GATA4 (UniProt P43694). Briefly: pull-down; GST fusion protein expressed in E. coli BL21 and purified on GST-tag purification resin as bait; partner in lysate of transfected HEK293T cells; western blot; only the target purified.

No constants are given. Whether binding was seen depends on the method and setting. Binding seen in cells or lysates may run through a third protein. Some results given as binding are weak or reduced against the parent protein; the word gives no strength.

In the case of Flag-GATA4 (from UniProt P43694 1-442), the binding entry with GFP-p65 and with GST-p65 was “binds” each time.

Consider GFP-p65 (from UniProt Q04206 1-551), for which the binding result with Myc-GATA4 is “binds”.

With “HDAC1, endogenous in T47D cells (from UniProt Q13547 1-482) (enzyme)”, the binding result in experiment [1] is given as “binds”.

As for “GATA-binding protein 4 (GATA4), endogenous in T47D cells (from UniProt P43694 1-442)”, the binding entry in experiment [2] is on record as “binds”.

“HA-HDAC1 (from UniProt Q13547 1-482) (enzyme)”: the binding entry with Flag-GATA4, with GFP-p65 and with GST-GATA4 was “binds” throughout.

The record behind these values is paper PMC11039647.
